Our source for the z-score values is PubChem BioAssay AID463116 (University of Pittsburgh Molecular Library Screening Center, 2010).

The other results are listed elsewhere or left out. Further columns of the screen follow, without active or inactive calls. Most of these compounds were active or inconclusive in the main read-out, so they are no random draw.

The assay can be described thus: dynein cargo transport inhibitors, GR-EGFP translocation, confirmation, imaging, high-content imaging, GR-EGFP cells (AID 463116). The conditions noted are these: 3617.4 GR-EGFP nuclear translocation imaging, dexamethasone-induced; measured here: cell count per field; at 20 µM.
With `O=C(Oc1oc(-c2ccco2)nc1C=Nc1ccccc1)c1ccoc1`, the z-score is 0.506.

As to `O=c1c(C(c2nnnn2C2CCCCC2)N2CCCCC2)coc2ccc(Cl)cc12` (stereo not given), the z-score was found to be 0.237.

As for `CCOC(=O)c1c(NC(=O)/C=C\C(=O)O)sc(C)c1-c1ccccc1`, the z-score worked out at 0.279.

Regarding `COc1ccc(CC(=O)n2[nH]c(=O)ccc2=O)cc1OC`, the z-score worked out at 0.733.

Compound `COC(=O)[C@@]1(Cc2ccccc2)[C@@H]2C(=CC(=O)[C@H]2CC(=O)C(=O)N(C)C)CN1C(=O)c1ccccc1` came in with a z-score of 0.16.

For `Cc1cc(C)c2c(=O)n(CC(=O)N3CCC(N4CCCCC4)CC3)sc2n1`, the z-score was -0.0907.

Consider `CN(C)CCCN(C(=O)CCOc1ccccc1)c1nc2c(F)cccc2s1`, for which the z-score came to 0.493.

`CCOn1c(=O)c(-c2ccc(OC)c(OC)c2)[n+]([O-])c2ccccc21` registered a z-score of 0.591.

Compound `CCN1CCN(C2=C(Cl)C(=O)N(Cc3ccccc3)C2=O)CC1` yielded a z-score of 0.727.

In turn, `O=[N+]([O-])c1ccc(/C=C/C2=NN(c3ccccc3)C(c3ccco3)C2)o1` (stereo not given) showed a z-score of 0.839.

As for `O=[N+]([O-])c1c(NCCCO)cc(Sc2ccc(Cl)cc2)c2nonc12`, the z-score was 0.0603.

In turn, `CCCNC(=O)c1nnsc1S(=O)(=O)c1ccc(Cl)cc1` registered a z-score of -0.372.

Turning to `COc1ccc(-c2cc(C(F)(F)F)nc(S(=O)(=O)CCCC(=O)Nc3cc(C)on3)n2)cc1OC`, the z-score worked out at 0.273.

Compound `O=[N+]([O-])c1c(NCCCO)cc(Sc2nc3ccccc3s2)c2nonc12` registered a z-score of 0.3.

With `O=C(Cn1ncc(Cl)c(Cl)c1=O)N1CCN(Cc2ccccc2)CC1`, the z-score was found to be 0.344.

On to `O=C(NC1CCCC1)C(c1ccc(F)cc1)N(Cc1ccc(Cl)cc1)C(=O)CCl` (stereo not given), for which the z-score stood at 0.871.

The compound `O=C(O)CCN1C(=O)/C(=C\c2ccc(-c3nc4ccccc4s3)o2)SC1=S` yielded a z-score of 0.115.

`CC(=O)n1cc(N(C(=O)CCl)c2ccc([N+](=O)[O-])cc2)c2ccccc21` displayed a z-score of 0.185.

Take `CCCCN1C(=O)/C(=C/C=C2\N(C)c3ccccc3C2(C)C)SC1=S`: the z-score turned out to be 0.289.

The compound `CCOC(=O)c1c(-c2ccc(C)o2)csc1NC(=O)CN1CCCCC1` returned a z-score of 0.118.

Consider `COc1ccc(C(=O)/C=C/C(=O)N(CC(=O)NCCC(C)C)Cc2cccs2)c(O)c1`, for which the z-score came out at 0.369.

With `c1cncc(-c2nc(-c3ccco3)cs2)c1`, the z-score was 0.434.

Take `S=c1[nH]nc(-c2cc(-c3ccccc3)n[nH]2)n1/N=C/C(Br)=C/c1ccccc1`: the z-score was 0.843.

As to `COCCCNC(=O)c1ccc2c3c(onc13)-c1ccccc1C2=O`, the z-score came to 0.336.

For the compound `CCOC(=O)CC1C(=O)NCCN1c1nc2ccc(C)cn2c(=O)c1/C=C1\SC(=S)N(C(C)CC)C1=O` (stereo not given), the z-score came out at 0.246.

`CCc1ccc(/C=C/C(=O)c2c(C)cc(C)[nH]c2=O)cc1` showed a z-score of 0.289.

In turn, `CC(=O)O[C@@H]1C[C@H]2C(C)(C)C(=O)C=C[C@]2(C)[C@H]2CC[C@@]3(C)[C@H](c4ccoc4)OC(=O)[C@H]4O[C@]43[C@@]21C` registered a z-score of 0.403.

`N/C(=C\C(=O)c1cc(Cl)ccc1O)C(Cl)(Cl)Cl` yielded a z-score of 0.0252.

Take `Cn1nnnc1SC1CC(=O)N(c2ccccc2)C1=O` (stereo not given): the z-score turned out to be 0.392.

The compound `CC1CC(C)(C)Nc2ccc(N=O)cc21` (stereo not given) came in with a z-score of -0.121.

`CN(Cc1ccc(Cl)s1)C(=O)CCl` came in with a z-score of 0.193.

Compound `O=c1cc(-c2c(F)c(F)c(F)c(F)c2F)oc2c(F)c(F)c(F)c(F)c12` had a z-score of 0.274.

The compound `CCOC(=S)SCC(=O)Nc1nc(C)c(C)s1` yielded a z-score of -0.00753.

`CCOC(=S)SCC(=O)Nc1ncc(C)s1` showed a z-score of 0.146.

In the case of `Cc1ccc2[nH]c(=O)c(CN(CCCO)S(=O)(=O)c3c(C)ccc4nsnc34)cc2c1`, the z-score was determined as 0.37.

`O=C(/C=C/c1ccco1)Nc1ccccc1N1CCCC1` gave a z-score of 0.155.

Consider `CCOC(=O)c1c(C)sc2c1N(C(=O)CCl)c1cc(Cl)ccc1S2`, for which the z-score was 0.296.

Regarding `O=C(NC1CCCCC1)C(c1cccnc1)N(C(=O)CCl)c1cccc(Cl)c1` (stereo not given), the z-score was 0.311.

Compound `Cc1cc(S(=O)(=O)Nc2cc(C)c(O)c(C)c2)c(C)s1` yielded a z-score of -0.039.

`CC(C)c1ccc(/C=C/C(=O)n2nnc3ccccc32)cc1` had a z-score of -0.0508.

The compound `CC1OC(OC2C(OC3C(O[C@H]4CC[C@]5(C)C6C=C[C@]78OC[C@@]9(CC[C@@H](C)[C@H](C)C97)[C@H](O)C[C@@]8(C)[C@]6(C)CC[C@H]5C4(C)C)OC(C)C(O)C3O)OC(CO)C(O)C2O)C(O)C(O)C1O` (stereo not given in full) yielded a z-score of -5.06.

In the case of `COc1ccc(C(=O)/C=C/C(=O)N(CC(=O)NC2CCCCC2)Cc2ccc(F)cc2)c(O)c1`, the z-score was -1.39.

Turning to `Cc1ccc(CN=Cc2[nH]c3ccc(Br)c(Cl)c3c2O)cc1`, the z-score is 0.109.

Consider `Cc1nc([N+](=O)[O-])c(Br)n1CC(=O)c1ccc(Br)cc1`, for which the z-score was found to be 0.7.

As to `COc1ccc(C(=O)C(CN2CCCC2)c2ccccc2)cc1` (stereo not given), the z-score amounted to 0.395.

`Cc1ccc2cc(CN(CC3CCCO3)C(=S)NCc3ccco3)c(=O)[nH]c2c1` (stereo not given) yielded a z-score of 0.214.

`Cc1ccccc1N1C(=O)CC(Sc2nnc(-c3ccccc3)o2)C1=O` (stereo not given) displayed a z-score of -0.536.

For `O=C(CCl)N1CCN2C(=O)c3ccccc3C12c1ccc(Cl)cc1` (stereo not given), the z-score was -0.0243.

With `CC(C)(C)c1ccc(C(=O)CC(Sc2ccc(Cl)cc2)C(=O)O)cc1` (stereo not given), the z-score came to 0.161.

`C=C(CCC(=O)c1ccccc1)C(=O)c1ccccc1` had a z-score of -0.709.

Compound `CN(C)c1oc(-c2ccccc2[N+](=O)[O-])nc1C#N` came in with a z-score of 0.317.

As to `O=c1cc(C(Cl)(Cl)Cl)oc2c1ccc1ccccc12`, the z-score was 0.0481.

Regarding `COC(=O)c1cc(=O)n(CCc2ccc(OC)c(OC)c2)c(=Nc2ccc(F)c(Cl)c2)s1`, the z-score is 0.43.

`CC1=NN(c2ccccc2)C(=O)/C1=C/C=C/c1ccccc1`: the z-score stood at 0.987.

`O=C(Nc1ccc(Cl)cc1)/C(=C/c1cccc(O)c1)c1nc2ccccc2s1` returned a z-score of -0.212.

In turn, `CCN(CC)c1ccc(/C=C2/SC(=O)N(C(C)C)C2=O)o1` returned a z-score of -0.0463.

Turning to `C#CC(=O)N(c1cc(OC)ccc1OC)C(C(=O)NC1CCCC1)c1cccs1` (stereo not given), the z-score is -0.722.

For `COc1ccc(-n2cccc2/C=C/[N+](=O)[O-])cc1`, the z-score turned out to be 0.0783.

In turn, `O=C(OCCN1C(=O)c2cccc3c(N4CCOCC4)ccc(c23)C1=O)c1ccc(Cl)cc1Cl` displayed a z-score of 0.285.

`COC(=O)c1cc(=O)n(Cc2ccc(F)cc2)c(=Nc2ccccc2)s1` came in with a z-score of 0.0771.

On to `CC1CCc2cc(F)ccc2N1C(=O)CCl` (stereo not given), for which the z-score is -0.109.

Turning to `COc1ccccc1NS(=O)(=O)c1cc([N+](=O)[O-])ccc1N/N=C/c1c[nH]c2ccccc12`, the z-score is 0.927.

In turn, `CCCCCCN(C(=O)CCl)c1ccccc1` came in with a z-score of 0.247.

With `CC1=CC(=O)C(C(C)C)=CC1=NC(=O)c1ccc(C)cc1`, the z-score was determined as 0.0272.

With `COC(CN(C(=O)CCl)C(C(=O)NC1CCCC(C)C1C)c1ccc(C)cc1)OC` (stereo not given), the z-score is -0.105.

In turn, `COC(=O)c1ccc(-n2c(C)cc(C(=O)CCl)c2C)cc1` gave a z-score of 0.474.

Turning to `Cc1onc(-c2ccccc2)c1-c1nc2cc(Cl)ccc2c(=O)o1`, the z-score was -0.806.

Consider `O=C1C=CC(=O)N1c1cccc(-c2ccccc2)c1`, for which the z-score was -3.78.

Consider `O=c1[nH]c2ccccc2c2oc(CCl)nc12`, for which the z-score is -0.143.

With `COc1ccc(-c2c(C#N)c(N)nc3sc(C(=O)c4ccccc4)c(N)c23)cc1`, the z-score stood at 0.138.

With `CC(=O)c1sc2nc(-c3cccs3)cc(C(F)(F)F)c2c1N`, the z-score amounted to 0.554.

Compound `CC1(C)Cc2c(sc3c4nnnn4c4nnnn4c23)CO1` returned a z-score of 0.814.

With `COc1ccc(C(=O)Cn2c(C)nc([N+](=O)[O-])c2Br)cc1`, the z-score is -0.551.

`N#CC(C#N)=Cc1cc2ccccc2nc1N1CCCCC1`: the z-score was -0.161.

With `COC(=O)C1=C(C)N(Cc2ccc(C)cc2)C(=O)/C1=C\c1cc(OC)c(OC)c(OC)c1`, the z-score was -0.224.

`N#CC1=C(N)C(C#N)(C#N)C(c2ccncc2)C2CN(C(=O)OCc3ccccc3)CC=C12` (stereo not given): the z-score turned out to be 0.0706.

In turn, `Cc1nn(-c2ccccc2)c(Cl)c1CN(C(=O)CCl)c1ccc(Cl)cc1` yielded a z-score of -0.842.

Consider `CN(C)S(=O)(=O)c1cccc(-n2sc3ccccc3c2=O)c1`, for which the z-score was 0.633.

The compound `O=C(NC1CCCC1)C(c1ccc(F)cc1)N(Cc1ccc(F)cc1)C(=O)CCl` (stereo not given) had a z-score of 0.699.

`CC1=NOC(=O)/C1=C\c1ccc(-c2ccccc2Br)o1` returned a z-score of 0.22.

For `CCC(=O)OCCNc1cc(Sc2nccn2C)c2nonc2c1[N+](=O)[O-]`, the z-score was -1.29.

Consider `CCOC(=O)C(C(=O)OCC)C(C(=O)OCC)N1CCOCC1` (stereo not given), for which the z-score turned out to be 0.201.

The compound `CCN(CC)c1ccc(/C=C/c2cc(-c3ccccc3)c3ccccc3n2)cc1` showed a z-score of 0.299.

As to `COc1ccc([N+](=O)[O-])c(S(=O)(=O)c2ccc(Cl)cc2)n1`, the z-score stood at 0.421.

`CCOc1cc(/C=C2\C(=O)N(CCc3ccc(OC)c(OC)c3)C(C)=C2C(=O)OC)ccc1O` returned a z-score of 0.0247.

As for `N#CC1=C(N)OC2=C(CC/C2=C\c2ccccc2)C1c1ccccc1` (stereo not given), the z-score stood at 0.0473.

Regarding `CC(C)(C)C(=O)Cn1ncc(Cl)c(Cl)c1=O`, the z-score stood at 0.651.

`CCCc1cc(NC(=O)CCl)n(-c2ccccc2)n1` registered a z-score of 0.664.

The compound `CC(C)(C)C(=O)Cn1ncc(Br)c(Br)c1=O` returned a z-score of 0.335.

Consider `COc1ccc(C(=O)c2sc3nc(C)cc(-c4cccs4)c3c2N)cc1`, for which the z-score is -0.0913.

In turn, `COC(=O)C(=C/C(C)=C/c1cccnc1)C(=O)OC` returned a z-score of -0.0161.

For `O=[N+]([O-])c1ccc(Sc2ncccn2)c([N+](=O)[O-])c1`, the z-score is -1.05.

`COc1ccccc1C1Nc2cccc3cccc(c23)N1`: the z-score worked out at 0.733.

Take `O=C1N/C(=C/c2ccc(N3CCOCC3)o2)C(=O)N1c1cccc(Cl)c1`: the z-score was -0.678.

For `O=C(NC1CCCCC1)C(c1cccnc1)N(C(=O)CCl)c1ccc(F)cc1` (stereo not given), the z-score turned out to be 0.847.

`O=c1c(Cl)nc2cc(Cl)ccc2n1CCNc1ncc(C(F)(F)F)cc1Cl` gave a z-score of -2.29.

As for `Cc1ccc(C2=NOC(=O)/C2=C\C=C\c2ccccc2)cc1`, the z-score was -1.24.

For `Cn1cc(C(=O)CCl)c2ccccc21`, the z-score was -0.126.

`CC(=O)N(C1CC(C)C(C#N)(C#N)C1(C#N)C#N)N(C)C` (stereo not given) returned a z-score of 0.641.

For `CCCSc1cc(NCCOC(=O)CCC)c([N+](=O)[O-])c2nonc12`, the z-score was -1.01.

For `Cc1nc([N+](=O)[O-])c(Br)n1CC(=O)c1ccc(Cl)cc1`, the z-score came to 0.654.

For `Cc1nc(COC(=O)c2cc(O)c3ccccc3c2O)cs1`, the z-score was 0.453.

`COCc1cc(S(=O)c2ccc(Cl)cc2)nc(C)n1` (stereo not given) gave a z-score of 0.46.

The compound `CC(=O)N(C)Cc1ccc(C(=O)CCl)cc1` yielded a z-score of 0.17.

On to `O=C(/C=C/c1ccc(F)cc1)c1cc(Br)ccc1O`, for which the z-score is -0.255.
